Source: patent publication US9796676B2, “Honeybee repellents and uses thereof” (Inscent, Inc., priority 2013, dated 2017)

System: OBP2
Assay: Fluorescent-quench ligand-protein-binding assay (OBP2 binding)
Design: species or system Apis mellifera
Description: To identify a honeybee repellent disclosed herein, candidate compounds were screened based upon the fact that 2-heptanone is an established repellent of bees. 2-heptanone is thought to mediate its behavioral response through binding to a specific odorant-binding protein called OBP2. Therefore compounds that bind OBP2 have the potential to act as odor “mimics” of 2-heptanone. By utilizing a fluorescent-quench, ligand-protein-binding assay, 30,000 compounds from the […]® library (ChemBridge Corp., San Diego, Calif.), a chemical library, were screened and over 150 candidate compounds were isolated that bind OBP2 (Table 1). Such assays are generally known in the art. See, e.g., Briand, et al., Ligand-Binding Properties and Structural Characterization of a Novel Rat Odorant-Binding Protein Variant, Eur. J. Biochem. 267(10): 3079-3089 (2000); Briand, et al., Ligand Binding and Physico-Chemical Properties of ASP2, A Recombinant Odorant-Binding Protein From Honeybee (Apis mellifera L.), Eur. J. Biochem. 268(3): 752-760 (2001); Briand, et al., Characterization of a Chemosensory Protein (ASP3c) from Honeybee (Apis mellifera L.) as a Brood Pheromone Carrier, Eur. J. Biochem. 269(18): 4586-4596 (2002), each of which is hereby incorporated by reference in its entirety.

SMILES: O=C(CCN1C(=O)c2ccccc2C1=O)N1CCN(C2c3ccccc3-c3ccccc32)CC1 [compound 100]
- OBP2 binding characteristic of compound: Moderate (Moderate, indicates that 50% or less of the compound bound to OBP2.)
